In PMC6507211:
No constants are given. Whether binding was seen depends on the method and setting. In cells and extracts the contact can be indirect. Some binding calls cover weakened binding; strength is not graded here.

Sequences of proteins named here, by UniProt entry; tags and fusion partners are left off.
UniProt P21918: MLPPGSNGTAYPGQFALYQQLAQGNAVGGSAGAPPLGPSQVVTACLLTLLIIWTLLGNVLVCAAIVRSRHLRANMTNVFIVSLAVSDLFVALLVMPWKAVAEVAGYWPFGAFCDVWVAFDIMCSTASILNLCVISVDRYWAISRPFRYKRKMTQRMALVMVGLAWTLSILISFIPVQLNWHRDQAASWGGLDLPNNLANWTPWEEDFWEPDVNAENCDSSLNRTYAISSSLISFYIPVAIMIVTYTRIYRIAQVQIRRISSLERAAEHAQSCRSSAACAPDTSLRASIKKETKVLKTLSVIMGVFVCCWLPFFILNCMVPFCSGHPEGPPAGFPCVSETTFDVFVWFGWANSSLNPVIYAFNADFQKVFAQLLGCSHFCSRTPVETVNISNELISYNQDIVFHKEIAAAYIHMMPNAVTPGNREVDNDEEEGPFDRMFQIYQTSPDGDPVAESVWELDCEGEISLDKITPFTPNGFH
UniProt P21279: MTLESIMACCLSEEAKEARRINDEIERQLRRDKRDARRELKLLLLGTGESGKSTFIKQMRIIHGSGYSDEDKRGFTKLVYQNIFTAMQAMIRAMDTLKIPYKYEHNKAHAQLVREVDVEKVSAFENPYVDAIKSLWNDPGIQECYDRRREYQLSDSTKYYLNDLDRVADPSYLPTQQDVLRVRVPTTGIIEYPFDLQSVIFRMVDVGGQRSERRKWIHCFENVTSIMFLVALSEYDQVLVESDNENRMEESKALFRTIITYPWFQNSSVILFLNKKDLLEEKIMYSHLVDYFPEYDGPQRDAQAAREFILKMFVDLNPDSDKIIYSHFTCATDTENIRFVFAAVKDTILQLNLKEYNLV
UniProt P63094: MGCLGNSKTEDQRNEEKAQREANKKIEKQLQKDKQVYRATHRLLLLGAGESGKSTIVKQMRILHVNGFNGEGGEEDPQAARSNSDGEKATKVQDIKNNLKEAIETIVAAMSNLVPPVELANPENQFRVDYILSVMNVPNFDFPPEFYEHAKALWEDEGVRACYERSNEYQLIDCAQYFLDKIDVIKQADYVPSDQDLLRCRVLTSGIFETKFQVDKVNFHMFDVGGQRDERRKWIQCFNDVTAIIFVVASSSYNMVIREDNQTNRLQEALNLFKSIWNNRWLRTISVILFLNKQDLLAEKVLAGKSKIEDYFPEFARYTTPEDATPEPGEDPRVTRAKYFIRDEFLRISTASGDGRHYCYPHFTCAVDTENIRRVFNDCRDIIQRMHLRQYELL

Biological target: human dopamine D5 receptor wild type (human) (UniProt P21918)
Experiment: co-IP; renal cortex homogenates (500 μg protein/mL) of hD5R^WT-TG and hD5R^F173L-TG mice; anti-D5R antibody (3 μg/mL) 1 hour, protein-G agarose at 4°C for 12 hours; immunoblot with anti-Gαq or anti-Gαs antibody; IgG as negative control

| binding | Sequence |
| --- | --- |
| binds | G protein alpha q subunit (from UniProt P21279 1-359) |
| binds | G protein alpha s subunit (from UniProt P63094 1-394) |
